# Measured values: patent US10138195B2, “Organic compounds” (Givaudan, S. A., priority 2014, dated 2018)
# Experiment: Odour description
row,SMILES,Odour
1,"C=C(C)Cc1ccc(C(C)CC=O)cc1 (stereo not shown) [Example 2, 3-(4-(2-Methylallyl)phenyl)butanal]","floral, green, aldehydic, watery, buttery"
2,"C=C(C)Cc1ccc(CCC=O)c(C)c1 [Example 4, 3-(2-Methyl-4-(2-methylallyl)phenyl) propanal]","floral, aldehydic, green, waxy, cinnamic, lilac"
3,"C=C(C)Cc1ccc(CCC=O)cc1 [Example 1, 3-(4-(2-Methylallyl)phenyl)propanal]","floral, green, cyclamen, watery"
4,"C=C(C)Cc1ccc(CC(C)C=O)cc1 (stereo not shown) [Example 3, 2-Methyl-3-(4-(2-methylallyl)phenyl)propanal]","aldehydic, metallic, watery, fatty"
